Data: paper PMC11344848, “Proximity-driven site-specific cyclization of phage-displayed peptides” (Nature Communications, 2024)
These are yes or no findings as the source states them, for the method shown.

Target: streptavidin (UniProt P22629)
Assay: ELISA; phage ELISA: streptavidin-coated 96 well plate, no biotinylated antigen; phage blocked in 3% (w/v) mPBS, 1 h at room temperature; bound phage detected with anti-M13-HRP; only the target purified

For CGGSGGC (CCA-cyclized (linker CCA between the two cysteines)) [CCA-cyclized negative control phage construct (CGGSGGC)], the binding was “no binding”.
